Test results: publication PMC8291807
No constants are given. Whether binding was seen depends on the method and setting. Binding seen in cells or lysates may run through a third protein. Some results given as binding are weak or reduced against the parent protein; the word gives no strength.

The chains behind the UniProt entries cited, without tags or fusion partners.
UniProt P35222: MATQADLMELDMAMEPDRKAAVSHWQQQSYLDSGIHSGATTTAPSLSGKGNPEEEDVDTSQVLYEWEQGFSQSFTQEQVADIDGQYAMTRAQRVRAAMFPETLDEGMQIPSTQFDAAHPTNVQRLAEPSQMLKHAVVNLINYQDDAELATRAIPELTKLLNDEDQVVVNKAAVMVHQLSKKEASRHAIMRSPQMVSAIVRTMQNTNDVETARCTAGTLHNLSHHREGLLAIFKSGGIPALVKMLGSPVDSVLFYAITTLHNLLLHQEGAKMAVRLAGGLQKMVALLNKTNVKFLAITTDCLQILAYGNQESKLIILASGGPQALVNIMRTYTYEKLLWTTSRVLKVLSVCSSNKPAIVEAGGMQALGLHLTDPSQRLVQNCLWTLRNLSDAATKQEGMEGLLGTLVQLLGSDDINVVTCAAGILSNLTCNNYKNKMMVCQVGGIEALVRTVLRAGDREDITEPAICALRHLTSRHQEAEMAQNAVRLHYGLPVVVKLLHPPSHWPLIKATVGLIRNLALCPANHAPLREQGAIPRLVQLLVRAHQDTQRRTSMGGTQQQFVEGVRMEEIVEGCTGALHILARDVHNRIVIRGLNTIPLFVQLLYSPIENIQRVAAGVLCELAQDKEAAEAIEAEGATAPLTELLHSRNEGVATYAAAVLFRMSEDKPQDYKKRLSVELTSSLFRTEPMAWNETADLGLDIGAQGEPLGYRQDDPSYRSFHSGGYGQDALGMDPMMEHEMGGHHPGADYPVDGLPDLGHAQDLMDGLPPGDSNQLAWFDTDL
UniProt Q9UJU2: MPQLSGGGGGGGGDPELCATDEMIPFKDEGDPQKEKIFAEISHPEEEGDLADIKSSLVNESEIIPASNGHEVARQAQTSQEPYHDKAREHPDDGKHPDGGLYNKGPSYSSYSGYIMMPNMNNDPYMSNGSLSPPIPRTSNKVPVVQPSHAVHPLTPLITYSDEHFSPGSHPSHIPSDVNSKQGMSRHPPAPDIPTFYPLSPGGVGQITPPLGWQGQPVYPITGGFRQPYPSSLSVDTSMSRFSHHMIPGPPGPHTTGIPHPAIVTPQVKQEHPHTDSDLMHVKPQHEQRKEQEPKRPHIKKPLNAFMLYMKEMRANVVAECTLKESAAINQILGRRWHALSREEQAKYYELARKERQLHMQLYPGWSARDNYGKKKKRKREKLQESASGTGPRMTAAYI

Biological target: phospho-β-catenin (human (endogenous in T24 and 5637)) (UniProt P35222)
Test: co-IP; endogenous proteins of T24 and 5637 cells treated with Rosiglitazone (20 μM) or GW9662 (20 μM); pulled by phospho-β-catenin, LEF1 detected; more LEF1 with GW9662, less with Rosiglitazone

With LEF1 (from UniProt Q9UJU2 1-399) the binding was “binds”.
